No constants are given. Whether binding was seen depends on the method and setting. Binding seen in cells or lysates may run through a third protein. Some results given as binding are weak or reduced against the parent protein; the word gives no strength. For some assays here: Where a sequence is shown, tags or fusion partners need not be part of it.

By UniProt entry, the sequences of proteins in these tests, tags left out.
UniProt P10417: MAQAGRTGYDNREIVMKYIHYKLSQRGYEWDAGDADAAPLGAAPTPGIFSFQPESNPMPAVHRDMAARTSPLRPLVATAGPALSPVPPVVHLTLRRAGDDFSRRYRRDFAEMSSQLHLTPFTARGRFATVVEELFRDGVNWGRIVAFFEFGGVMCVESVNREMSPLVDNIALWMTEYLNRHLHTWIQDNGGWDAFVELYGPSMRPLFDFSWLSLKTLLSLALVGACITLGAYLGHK

In experiment [1] the target is T1, Recombinant human PUMA fused to GST (human) (UniProt Q9BXH1).
T1 sequence: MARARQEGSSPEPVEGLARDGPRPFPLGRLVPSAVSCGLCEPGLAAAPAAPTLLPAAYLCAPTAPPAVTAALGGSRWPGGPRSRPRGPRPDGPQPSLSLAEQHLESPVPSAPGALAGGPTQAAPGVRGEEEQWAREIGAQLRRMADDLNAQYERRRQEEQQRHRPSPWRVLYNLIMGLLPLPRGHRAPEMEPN
As to the kind of experiment: pull-down; GST-PUMA bound to glutathione agarose resin, incubated with HEK293 lysate holding HA-tagged BCL-2 and overexpressed Akt (WT, CA or KD), with BH3BIM(I155R/E158S) peptide added; bound HA-BCL-2 detected by immunoblotting; only the target purified. For orientation: Immunoblotting shows a protein as a band on a membrane.

Experiment [2] deals with HA-tagged mouse BCL-2 (mouse) (UniProt P10417). As to the kind of experiment: pull-down; competition: BH3BIM(I155R/E158S) peptide incubated with HEK293 lysate holding HA-tagged BCL-2 and Akt (WT, CA or KD), then with GST-PUMA on glutathione agarose resin; read-out is the loss of bound HA-BCL-2; only the binder purified.

Turning to “HA-tagged mouse BCL-2 (from UniProt P10417 1-236)”, the binding entry in experiment [1] is recorded as “binds”.

With EIWIAQELRRRGDSFNAYYAR (phosphoserine at 158; acetylated amino terminus; amidated carboxyl terminus) [p-BH3BIM(I155R/E158S), 21-mer peptide phosphorylated at Ser158], the binding result in experiment [2] is “binds”.

The values above are taken from publication PMC4650712, “Conversion of cell-survival activity of Akt into apoptotic death of cancer cells by two mutations on the BIM BH3 domain” (Cell Death & Disease, 2015).
